From article PMC7154107
Residue numbers refer to the chain shown, from its start. Names may count otherwise. No constants are given. Whether binding was seen depends on the method and setting. Binding seen in cells or lysates may run through a third protein. Some results given as binding are weak or reduced against the parent protein; the word gives no strength. Blank lines part the entries; values can stand above or below the binder they belong to.

Biological target: T1, human NaDC-1 (sodium dicarboxylate cotransporter-1, SLC13A2) (human) (UniProt Q13183)
T1 sequence: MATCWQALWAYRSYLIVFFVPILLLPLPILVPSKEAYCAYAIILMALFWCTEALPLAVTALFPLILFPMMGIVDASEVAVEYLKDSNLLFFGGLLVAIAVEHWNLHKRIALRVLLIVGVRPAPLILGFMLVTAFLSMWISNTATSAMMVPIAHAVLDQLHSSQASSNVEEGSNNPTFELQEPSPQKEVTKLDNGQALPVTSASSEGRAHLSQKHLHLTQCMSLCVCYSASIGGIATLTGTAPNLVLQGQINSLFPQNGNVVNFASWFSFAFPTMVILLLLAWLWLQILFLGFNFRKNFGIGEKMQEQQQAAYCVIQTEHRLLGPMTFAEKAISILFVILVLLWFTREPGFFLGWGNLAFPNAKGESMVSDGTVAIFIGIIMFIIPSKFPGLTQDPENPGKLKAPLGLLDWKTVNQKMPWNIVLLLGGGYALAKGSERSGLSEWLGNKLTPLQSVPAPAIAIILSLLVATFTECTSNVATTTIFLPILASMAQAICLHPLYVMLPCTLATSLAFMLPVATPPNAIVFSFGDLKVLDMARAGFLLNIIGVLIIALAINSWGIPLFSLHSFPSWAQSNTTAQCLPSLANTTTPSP
Assay: co-IP; HEK293T cells transfected, lysates after 2 days (PBS, 10 mM Na-pyrophosphate, 50 mM NaF, pH 7.4, 1% Triton X-100); NaDC-1 precipitated with anti-His antibody and Protein G Sepharose at 4°C; blot with anti-SLC26A6; SLC26A6 expression levels adjusted

binding: binds
B1: human SLC26A6(WT) (protein, UniProt Q9BXS9-1 1-759)
chain: MGLADASGPRDTQALLSATQAMDLRRRDYHMERPLLNQEHLEELGRWGSAPRTHQWRTWLQCSRARAYALLLQHLPVLVWLPRYPVRDWLLGDLLSGLSVAIMQLPQGLAYALLAGLPPVFGLYSSFYPVFIYFLFGTSRHISVGTFAVMSVMVGSVTESLAPQALNDSMINETARDAARVQVASTLSVLVGLFQVGLGLIHFGFVVTYLSEPLVRGYTTAAAVQVFVSQLKYVFGLHLSSHSGPLSLIYTVLEVCWKLPQSKVGTVVTAAVAGVVLVVVKLLNDKLQQQLPMPIPGELLTLIGATGISYGMGLKHRFEVDVVGNIPAGLVPPVAPNTQLFSKLVGSAFTIAVVGFAIAISLGKIFALRHGYRVDSNQELVALGLSNLIGGIFQCFPVSCSMSRSLVQESTGGNSQVAGAISSLFILLIIVKLGELFHDLPKAVLAAIIIVNLKGMLRQLSDMRSLWKANRADLLIWLVTFTATILLNLDLGLVVAVIFSLLLVVVRTQMPHYSVLGQVPDTDIYRDVAEYSEAKEVRGVKVFRSSATVYFANAEFYSDALKQRCGVDVDFLISQKKKLLKKQEQLKLKQLQKEEKLRKQAASPKGASVSINVNTSLEDMRSNNVEDCKMMQVSSGDKMEDATANGQEDSKAPDGSTLKALGLPQPDFHSLILDLGALSFVDTVCLKSLKNIFHDFREIEVEVYMAACHSPVVSQLEAGHFFDASITKKHLFASVHDAVTFALQHPRPVPDSPVSVTRL

binding: binds
B2: human SLC26A6(R621G) (protein, UniProt Q9BXS9-1 1-759)
chain: B1 chain with R621G

binding: binds
B3: human SLC26A6(D674N) (protein, UniProt Q9BXS9-1 1-759)
chain: B1 chain with D674N
